# No constants are given. Whether binding was seen depends on the method and setting. Binding seen in cells or lysates may run through a third protein. These calls come from enrichment with a bait or labelling near it, and not all partners need be listed. For part of these data: A no says only that the protein was not detected with the bait.
# Chains of the proteins cited; added tags and fusions are not shown.
# UniProt O60563: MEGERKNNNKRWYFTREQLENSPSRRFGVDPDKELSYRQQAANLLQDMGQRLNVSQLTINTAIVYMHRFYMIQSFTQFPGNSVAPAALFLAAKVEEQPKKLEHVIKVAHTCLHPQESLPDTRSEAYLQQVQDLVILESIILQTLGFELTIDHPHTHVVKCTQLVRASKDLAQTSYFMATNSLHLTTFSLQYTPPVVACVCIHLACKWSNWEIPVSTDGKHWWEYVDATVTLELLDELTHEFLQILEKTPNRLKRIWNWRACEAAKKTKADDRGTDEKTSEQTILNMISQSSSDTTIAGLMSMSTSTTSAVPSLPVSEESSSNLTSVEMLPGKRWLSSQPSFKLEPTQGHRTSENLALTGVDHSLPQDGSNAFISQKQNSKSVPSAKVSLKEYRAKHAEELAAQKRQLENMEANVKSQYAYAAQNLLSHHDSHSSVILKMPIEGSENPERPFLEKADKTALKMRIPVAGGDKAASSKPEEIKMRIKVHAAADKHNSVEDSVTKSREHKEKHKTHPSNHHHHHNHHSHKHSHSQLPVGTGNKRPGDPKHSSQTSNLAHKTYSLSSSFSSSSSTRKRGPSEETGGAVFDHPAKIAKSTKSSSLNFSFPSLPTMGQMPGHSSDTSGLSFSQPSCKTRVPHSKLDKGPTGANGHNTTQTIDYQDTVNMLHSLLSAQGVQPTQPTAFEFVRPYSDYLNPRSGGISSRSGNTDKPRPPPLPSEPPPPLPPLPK
# UniProt P16788: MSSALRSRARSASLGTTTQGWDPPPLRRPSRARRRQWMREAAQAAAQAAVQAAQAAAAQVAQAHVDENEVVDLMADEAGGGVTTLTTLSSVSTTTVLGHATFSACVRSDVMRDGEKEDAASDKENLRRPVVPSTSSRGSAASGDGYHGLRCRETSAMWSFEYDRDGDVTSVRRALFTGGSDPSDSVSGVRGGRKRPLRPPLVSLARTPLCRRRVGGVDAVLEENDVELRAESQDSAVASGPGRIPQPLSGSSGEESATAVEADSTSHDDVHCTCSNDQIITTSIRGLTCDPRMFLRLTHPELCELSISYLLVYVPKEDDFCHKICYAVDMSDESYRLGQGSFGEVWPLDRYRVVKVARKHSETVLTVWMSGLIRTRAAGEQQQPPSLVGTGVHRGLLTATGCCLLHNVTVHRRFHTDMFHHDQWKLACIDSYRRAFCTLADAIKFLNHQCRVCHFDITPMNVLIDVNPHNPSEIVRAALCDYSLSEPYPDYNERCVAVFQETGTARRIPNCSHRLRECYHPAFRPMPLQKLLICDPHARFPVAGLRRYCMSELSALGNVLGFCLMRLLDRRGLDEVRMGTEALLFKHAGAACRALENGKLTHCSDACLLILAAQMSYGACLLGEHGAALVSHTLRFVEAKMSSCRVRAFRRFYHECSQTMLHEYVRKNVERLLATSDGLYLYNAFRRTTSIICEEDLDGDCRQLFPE
# UniProt P38936: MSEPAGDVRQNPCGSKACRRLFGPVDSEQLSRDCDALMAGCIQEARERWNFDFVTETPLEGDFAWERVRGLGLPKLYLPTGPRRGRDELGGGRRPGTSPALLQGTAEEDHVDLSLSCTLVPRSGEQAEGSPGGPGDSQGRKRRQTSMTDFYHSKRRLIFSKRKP
# UniProt P46527: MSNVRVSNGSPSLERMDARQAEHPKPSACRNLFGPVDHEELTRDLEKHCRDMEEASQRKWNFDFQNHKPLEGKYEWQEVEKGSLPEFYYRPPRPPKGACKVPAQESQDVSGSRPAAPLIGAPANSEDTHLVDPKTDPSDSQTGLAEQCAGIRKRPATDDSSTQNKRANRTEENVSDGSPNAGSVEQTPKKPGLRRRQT
# UniProt O60583: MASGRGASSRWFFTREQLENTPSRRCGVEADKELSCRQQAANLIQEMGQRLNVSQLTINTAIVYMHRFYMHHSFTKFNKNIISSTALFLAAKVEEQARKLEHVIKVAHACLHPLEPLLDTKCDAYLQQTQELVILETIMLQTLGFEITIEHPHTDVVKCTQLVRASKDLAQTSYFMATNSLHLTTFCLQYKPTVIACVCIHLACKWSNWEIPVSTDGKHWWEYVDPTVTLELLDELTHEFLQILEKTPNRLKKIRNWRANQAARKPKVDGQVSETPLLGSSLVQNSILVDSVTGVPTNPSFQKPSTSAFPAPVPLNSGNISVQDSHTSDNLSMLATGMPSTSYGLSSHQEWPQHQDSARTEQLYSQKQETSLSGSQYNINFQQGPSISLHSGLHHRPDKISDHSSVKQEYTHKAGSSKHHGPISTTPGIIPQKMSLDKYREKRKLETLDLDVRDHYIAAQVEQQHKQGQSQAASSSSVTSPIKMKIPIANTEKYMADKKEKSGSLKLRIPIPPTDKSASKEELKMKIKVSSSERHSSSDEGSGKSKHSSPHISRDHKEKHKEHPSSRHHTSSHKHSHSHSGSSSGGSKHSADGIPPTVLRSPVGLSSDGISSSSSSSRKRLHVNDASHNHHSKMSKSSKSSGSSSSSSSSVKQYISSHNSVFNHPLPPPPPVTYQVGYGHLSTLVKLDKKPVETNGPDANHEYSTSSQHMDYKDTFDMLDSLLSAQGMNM
# UniProt P50750: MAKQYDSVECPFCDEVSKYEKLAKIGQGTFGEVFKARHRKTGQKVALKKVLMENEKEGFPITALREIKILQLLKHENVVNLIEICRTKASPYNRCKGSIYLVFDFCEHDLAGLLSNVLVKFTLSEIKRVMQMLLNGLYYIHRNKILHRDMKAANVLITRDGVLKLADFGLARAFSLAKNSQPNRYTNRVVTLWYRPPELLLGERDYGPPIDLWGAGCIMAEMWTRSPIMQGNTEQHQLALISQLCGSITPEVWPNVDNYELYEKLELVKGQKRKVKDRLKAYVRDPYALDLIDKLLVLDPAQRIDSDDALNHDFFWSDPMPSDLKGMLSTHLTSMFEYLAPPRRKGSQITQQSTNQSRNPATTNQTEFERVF
# Columns and labels:
# [1] = target: Cyclin B1 (human (endogenous in 293T and HFF)) (UniProt P14635); assay: affinity purification with mass spectrom
# [2] = target: Cyclin T1 (human (endogenous in 293T and HFF)) (UniProt O60563); assay: affinity purification with mass spectrom
# [3] = target: HCMV protein kinase pUL97, Flag-tagged (pUL97-Flag) (human cytomegalovirus) (UniProt P16788); assay: affinity purification with mass spectrometry
Substance,binding [1],binding [2],binding [3]
CDK inhibitor 1A (Cip1) (from UniProt P38936 1-164),binds,–,–
CDK inhibitor 1B (from UniProt P46527 1-198),binds,–,–
Cyclin T2 (from UniProt O60583 1-730),–,binds,no binding
Cyclin-dependent kinase 9 (from UniProt P50750 1-372),binds,–,–
Cyclin-dependent like kinase 5 (from UniProt Q00535 1-292),binds,–,–
